For at least one compound, name, drawing or mass did not settle the structure.
Assays:
Format in all cases: cell-based, human
hMADS-2 cells [1] = test: Expression of brown adipocyte markers and related genes in hMADS-2 cells (quantitative RT-PCR, immunoblot)
Method: Differentiation of hMADS-2 cells was carried out as described in FIG. 1. On day 16, levels of UCP1 (A), UCP2 (C), CIDEA (D) and CPT1B (E) mRNA were determined by quantitative RT-PCR. The results represent the mean±SD of 3 independent experiments carried out with various series of cells; they are expressed by taking as 100% the value obtained in the presence of 500 nM rosiglitazone. Levels of the UCP1 protein (B) were determined by immunoblotting on 2 different series of cells using TBP as endogenous internal standard.
Adipocytic differentiation of hMADS-2 cells was carried out in the presence of either rosiglitazone at 100 nM (A) or at the indicated concentrations (B). Levels of PRDM16, PGC-1α, PGC-1β and PPARα mRNA were determined by quantitative RT-PCR on day 16 (A) and day 17 (B). The results represent the mean±SD of 3 independent experiments carried out with various series of cells; they are expressed by taking as 100% the values obtained in the presence of 100 nM rosiglitazone (A) or 500 nM rosiglitazone (B).
Adipocytic differentiation of hMADS-2 cells was carried out in the presence of 100 nM rosiglitazone. On day 16, Bcl-2 and Bax mRNA levels were determined by quantitative RT-PCR. The results represent the mean±SD of 3 independent experiments carried out with various series of cells; they are expressed by taking as 100% the values obtained during treatment with rosiglitazone between days 3 and 9. *P0.05.
Cell culture: Preparation and characterization of hMADS cell multipotence and self-renewal have been described (Rodriguez, A. M., et al., Biochem Biophys Res Commun, 2004. 315(2): p. 255-63; Rodriguez, A. M., et al., J Exp Med, 2005. 201(9): p. 1397-405; Zaragosi, L. E. et al., Stem Cells, 2006. 24(11): p. 2412-9; Elabd, C, et al., Biochem Biophys Res Commun, 2007. 361(2): p. 342-8). Cells of the hMADS-2 line were established from adipose tissue from the pubic area of a donor aged 5; they were used between passages 16 and 35 (35 to 100 doublings of the cell population). The cells were cultured at a density of 4,500 cells/cm^2 in DMEM (Dulbecco's Modified Eagle Medium) enriched with 10% fetal calf serum, 2.5 ng/ml hFGF2, 60 μg/ml penicillin and 50 μg/ml streptomycin. After a change of medium every 2 days, when the cells become confluent, hFGF2 is eliminated and the cells induced to differentiate 2 days later, defining day 0 of differentiation. The adipocyte differentiation medium consists of DMEM/H12 (1:1, v/v) enriched with 10 μg/ml transferrin, 0.85 μM insulin, 0.2 nM T3, 1 μM dexamethasone (DEX) and 500 μM isobutylmethylxanthine (IBMX). Three days later, the medium is changed (DEX and IBMX omitted) and rosiglitazone added at the indicated concentrations and days. The medium is then changed every 2 days before using the cells. The determination of glycerol-3 phosphate dehydrogenase (GPDH) activity and lipid staining with Oil Red 0 have been previously described (Negrel, R. et al., Proc Natl Acad Sci USA, 1978. 75(12): p. 6054-8; Bezy, O., et al., J Biol Chem, 2005. 280(12): p. 11432-8).
RNA purification and analysis: RNA extraction, the use of reverse transcriptase and determination of mRNA levels by real-time quantitative RT-PCR have been described (Zaragosi, L. E et al., Stem Cells, 2006. 24(11): p. 2412-9; Elabd, C, et al., Biochem Biophys Res Commun, 2007. 361(2): p. 342-8; Bezy, O., et al., J Biol Chem, 2005. 280(12): p. 11432-8). Expression of the genes of interest was normalized compared with the one of the TBP gene and was quantified using the ΔCt comparative method. The sequences of oligonucleotide primers, obtained using the Primer Express Software (Perkin Elmer Life Sciences), are described in Table 1 below.
Immunoblot analysis: Total cellular lysates are analyzed by immunoblot as previously described (Bezy, O., et al., J Biol Chem, 2005. 280(12): p. 11432-8). […]

hMADS-1 cells = test: Effect of rosiglitazone on UCP1 expression in hMADS-1 cells
[2] = system: hMADS-2 cells differentiated into white adipocytes; test: Induction of a brown phenotype in hMADS-2 cells previously differentiated into white adipocytes; conditions: 2-day treatment of white adipocytes, days 14 to 16, after exposure days 3 to 9
Method: Initially hMADS-2 cells were differentiated into white adipocytes with 100 nM rosiglitazone present between days 3 and 9. Once eliminated, the ligand is added or not added on day 14 and during the following days at the indicated […] concentrations.
The results are expressed as stimulation factor by taking as 1 the values obtained on day 16 after exposure to 100 nM rosiglitazone between days 3 and 9; the values represent the mean±SD of 2 independent experiments carried out with various series of cells.
(§1) Expression of the genes of interest was normalized compared with the one of the TBP gene and was quantified using the ΔCt comparative method. The sequences of oligonucleotide primers, obtained using the Primer Express Software (Perkin Elmer Life Sciences), are described in Table 1 below.
The primary antibodies obtained from the rabbit, anti-human UCP1 and anti-TBP, are products from Santa Cruz Biotechnology (Santa Cruz, Calif., USA) and the secondary antibodies (conjugated with horseradish peroxidase) are products from Promega (Charbonnières, France). The “Enhanced Chemiluminescence” system (Millipore, Saint-Quentin-Yvelines, France) was used for detection.

hMADS-2 cells [3] = test: Adipocytic differentiation of hMADS-2 cells (Oil Red O lipid staining, GPDH activity, PPARγ mRNA); conditions: on day 16
Excerpt: as §1

hMADS-2 cells [4] = test: Oxygen consumption and respiratory uncoupling of hMADS-2 cells (respirometer); conditions: white adipocytes (days 3-9) treated later between days 16 and 20
Method: On day 20, oxygen consumption (A), decoupling of oxidative phosphorylation (B) and stimulation of oxygen consumption by isoprenaline (C) were measured according to the protocol described in “Materials and Methods”. […] Determination of oxygen consumption: Oxygen consumption was measured using two-chamber injection respirometer equipped with a Peltier thermostat, Clark electrodes and integrated magnetic stirrers (Oroboros, Innsbruck, Austria). Measurements were made at 37° C. with constant stirring in a volume of 2 ml of DMEM/F12 medium (1:1, v/v) containing 10% fetal calf serum. Before each measurement, the medium present in the chambers was equilibrated with air for 30 min, and then the freshly-trypsinized cells were transferred to this medium. […] The respiratory chain was blocked with 1 μg/ml antimycin A. Oxygen consumption was calculated using the DataGraph software (Oroboros Software). Basal respiratory activity corresponds to oxygen consumption sensitive to antimycin A. Respiratory activity was stimulated in the presence of 1 μM isoprenaline added extemporaneously in the injection chamber, with measurements made as described above.

[5] = 100 nM, switch from white to brown phenotype, day 16

CN(CCOc1ccc(CC2SC(=O)NC2=O)cc1)c1ccccn1 (stereo not shown) [rosiglitazone]
expression of UCP1 mRNA and UCP1 protein (hMADS-2 cells [1]; 20 nM exposure between days 3 and 16): strong expression | expression of the anti-apoptotic gene Bcl-2 (hMADS-2 cells [1]; [5]): increase | expression of the pro-apoptotic Bax gene (hMADS-2 cells [1]; [5]): decrease | levels of PPARα, PGC-1α, PGC-1β and PRDM16 (hMADS-2 cells [1]; adipocytes expressing white versus brown phenotype): similar | expression of UCP1 mRNA and UCP1 protein (hMADS-2 cells [1]; exposure between days 3 and 9): very weak expression | expression of the CIDEA gene (hMADS-2 cells [1]; long-term exposure (days 3 to 16) versus days 3 to 9): increased | expression of UCP2 mRNA (hMADS-2 cells [1]; longer exposure): increased | expression of UCP2 mRNA (hMADS-2 cells [1]; on day 9): strong expression | levels of mRNA coding for CPT1B (hMADS-2 cells [1]; switch from white phenotype (days 3-9) to brown phenotype (days 3-16)): strongly increased | rosiglitazone effects on UCP1 expression (hMADS-1 cells): also observed | expression of UCP1, CIDEA and CPT1B genes [2]: sufficient to stimulate the expression | rosiglitazone concentration sufficient to induce a maximum response (lipid accumulation, GPDH, PPARγ expression) (hMADS-2 cells [3]): 20 nM | increase in total and uncoupled respiratory activities (hMADS-2 cells [4]): reduced but remains quite notable

— patent publication US9790469B2, “Established human brown adipocyte line and method for differentiation from an hMADS cell line” (CENTRE NATIONAL DE LA RECHERCHE SCIENTIFIQUE (CNRS), priority 2008, dated 2017)
